{"source": "patent US4781863A", "about": "“Aminocarnitines” (Cornell Research Foundation, Inc., priority 1987, dated 1988)", "origin": "cited, not measured here", "test_system": "T. Brucei", "settings": "in vitro; cited from earlier work", "note": "At least one structure is not confirmed: it was looked up by name or label, or the drawing left a doubt."}
{"compound": "C[N+](C)(C)CC(CC(=O)[O-])OC(=O)CBr", "note": "[Bromoacetyl-L-carnitine]", "values": [{"measurement": "effect against T. Brucei", "value": "potent effect"}]}
